# Reference: patent US20070054846A1, “Bcl-w structure and uses therefor” (priority 2002, published 2007)
# Chains of the proteins cited; added tags and fusions are not shown. Lines headed by an entry give the natural chain unless they say otherwise; changes in a name come on top. A line that says so, or that is headed by a name, gives the form on record, which may keep a tag or linker.
# BimLΔC27 (O54918, form named): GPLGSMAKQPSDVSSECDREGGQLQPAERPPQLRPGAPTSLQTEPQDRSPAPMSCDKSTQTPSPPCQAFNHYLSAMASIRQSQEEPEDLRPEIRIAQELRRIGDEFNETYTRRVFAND
# BimLΔC27-L94A (O54918, form named): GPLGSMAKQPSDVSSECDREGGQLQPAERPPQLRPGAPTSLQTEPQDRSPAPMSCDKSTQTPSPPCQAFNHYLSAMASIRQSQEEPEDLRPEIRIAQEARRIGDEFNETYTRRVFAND
# Bim (O54918, form named): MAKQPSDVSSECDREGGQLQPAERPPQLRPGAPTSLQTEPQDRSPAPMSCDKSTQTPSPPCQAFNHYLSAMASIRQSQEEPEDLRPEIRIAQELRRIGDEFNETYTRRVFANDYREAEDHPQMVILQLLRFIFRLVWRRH
# UniProt Q91ZE9: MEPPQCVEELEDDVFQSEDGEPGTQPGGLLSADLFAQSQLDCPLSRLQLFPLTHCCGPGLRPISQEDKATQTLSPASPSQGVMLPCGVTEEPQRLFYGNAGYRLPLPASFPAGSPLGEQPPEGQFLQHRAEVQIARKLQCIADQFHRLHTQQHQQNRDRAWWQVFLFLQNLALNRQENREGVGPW
# These are yes or no findings as the source states them, for the method shown. For some assays here: Binding seen in cells or lysates may run through a third protein. Some binding calls cover weakened binding; strength is not graded here. Sequences can lack the tags named with a protein.
# Columns and labels:
# BimLΔC27 (mouse) [1] = target: BimLΔC27 (mouse) (UniProt O54918); experiment: GST pull-down, Coomassie-stained SDS-PAGE
# BimLΔC27 (mouse) [2] = target: BimLΔC27 (mouse) (UniProt O54918); experiment: GST pull-down
# BimLΔC27-L94A (mouse) [3] = target: BimLΔC27-L94A (mouse) (UniProt O54918); experiment: GST pull-down, Coomassie-stained SDS-PAGE
# BimLΔC27-L94A (mouse) [4] = target: BimLΔC27-L94A (mouse) (UniProt O54918); experiment: GST pull-down
# Bim = Bim (UniProt O54918); experiment: FIGS. 3, 4 and not shown
# [5] = target: Bmf (Mus musculus (Mouse)) (UniProt Q91ZE9); experiment: FIGS. 3, 4 and not shown
Binder,binding (BimLΔC27 (mouse) [1]),binding (BimLΔC27 (mouse) [2]),binding (BimLΔC27-L94A (mouse) [3]),binding (BimLΔC27-L94A (mouse) [4]),binding (Bim),binding [5]
"GST-Bcl-w (full-length) (protein, not shown: a dimerising Fc or GST; small tags and cut ends) MATPASAPDTRALVADFVGYKLRQKGYVCGAGPGEGPAADPLHQAMRAAGDEFETRFRRTFSDLAAQLHVTPGSAQQRFTQVSDELFQGGPNWGRLVAFFVFGAALCAESVNKEMEPLVGQVQEWMVAYLETRLADWIHSSGGWAEFTALYGDGALEEARRLREGNWASVRTVLTGAVALGALVTVGAFFASK",binds,binds,–,–,–,–
"GST-Bcl-wΔC29 (protein, not shown: a dimerising Fc or GST; large carriers; small tags and cut ends) MATPASAPDTRALVADFVGYKLRQKGYVCGAGPGEGPAADPLHQAMRAAGDEFETRFRRTFSDLAAQLHVTPGSAQQRFTQVSDELFQGGPNWGRLVAFFVFGAALCAESVNKEMEPLVGQVQEWMVAYLETRLADWIHSSGGWAEFTALYGDGALEEARRLRE",binds,binds,binds,binds,–,–
"FLAG Bcl-w (full-length, expressed in 293T cells) (protein, not shown: small tags and cut ends) MATPASAPDTRALVADFVGYKLRQKGYVCGAGPGEGPAADPLHQAMRAAGDEFETRFRRTFSDLAAQLHVTPGSAQQRFTQVSDELFQGGPNWGRLVAFFVFGAALCAESVNKEMEPLVGQVQEWMVAYLETRLADWIHSSGGWAEFTALYGDGALEEARRLREGNWASVRTVLTGAVALGALVTVGAFFASK",–,–,–,–,binds,binds
"FLAG Bcl-wΔC29 (protein, not shown: small tags and cut ends) MATPASAPDTRALVADFVGYKLRQKGYVCGAGPGEGPAADPLHQAMRAAGDEFETRFRRTFSDLAAQLHVTPGSAQQRFTQVSDELFQGGPNWGRLVAFFVFGAALCAESVNKEMEPLVGQVQEWMVAYLETRLADWIHSSGGWAEFTALYGDGALEEARRLRE",–,–,–,–,binds,binds
"FLAG Bcl-wΔC23 (protein, not shown: small tags and cut ends) MATPASAPDTRALVADFVGYKLRQKGYVCGAGPGEGPAADPLHQAMRAAGDEFETRFRRTFSDLAAQLHVTPGSAQQRFTQVSDELFQGGPNWGRLVAFFVFGAALCAESVNKEMEPLVGQVQEWMVAYLETRLADWIHSSGGWAEFTALYGDGALEEARRLREGNWASV",–,–,–,–,binds,binds
"FLAG Bcl-wΔC20 (protein, not shown: small tags and cut ends) MATPASAPDTRALVADFVGYKLRQKGYVCGAGPGEGPAADPLHQAMRAAGDEFETRFRRTFSDLAAQLHVTPGSAQQRFTQVSDELFQGGPNWGRLVAFFVFGAALCAESVNKEMEPLVGQVQEWMVAYLETRLADWIHSSGGWAEFTALYGDGALEEARRLREGNWASVRTV",–,–,–,–,binds,binds
